Reference: article PMC11335249
Results are given in words; binding and its absence hold for the method and conditions named. In cells and extracts the contact can be indirect.

The chains behind the UniProt entries cited, without tags or fusion partners. Where a name states a change or a piece, a line headed by the entry shows the natural chain unless it says otherwise. Residues count along the entry.
UniProt Q9P0T7, residues 21-183: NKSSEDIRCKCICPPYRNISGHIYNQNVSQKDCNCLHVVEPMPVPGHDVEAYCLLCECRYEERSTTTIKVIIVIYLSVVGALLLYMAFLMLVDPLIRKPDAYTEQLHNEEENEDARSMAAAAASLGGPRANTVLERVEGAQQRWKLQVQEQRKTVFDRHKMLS
UniProt Q14457: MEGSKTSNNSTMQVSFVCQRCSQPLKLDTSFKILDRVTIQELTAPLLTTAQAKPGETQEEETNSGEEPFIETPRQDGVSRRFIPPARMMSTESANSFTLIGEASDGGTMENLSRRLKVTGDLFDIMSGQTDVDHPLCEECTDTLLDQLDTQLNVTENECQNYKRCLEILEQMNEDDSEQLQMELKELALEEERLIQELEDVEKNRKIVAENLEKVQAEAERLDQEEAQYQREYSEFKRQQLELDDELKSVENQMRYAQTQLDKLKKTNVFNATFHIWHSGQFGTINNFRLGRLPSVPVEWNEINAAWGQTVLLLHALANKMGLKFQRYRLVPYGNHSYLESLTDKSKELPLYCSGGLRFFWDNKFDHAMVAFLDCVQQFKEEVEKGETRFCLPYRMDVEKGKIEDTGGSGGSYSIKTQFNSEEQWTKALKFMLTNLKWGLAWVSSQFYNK

Experiments:
TMEM9-VC (human) = TMEM9-VC (human) (UniProt Q9P0T7); test: split reporter; BiFC with Venus fragments (VN, VC) in HeLa cells, 37 °C for 24 h, fixed with 4% PFA, confocal microscopy
[1] = molecular target: TMEM9 ΔC, HA-tagged (human) (UniProt Q9P0T7); test: co-IP; HEK293T co-transfected for 48 h with HA-tagged TMEM9 (or deletion mutants) and Beclin1-flag (or deletion mutants); IP with anti-HA antibody; blots with anti-flag and anti-HA

Substance	binding (TMEM9-VC (human))	binding [1]
VN-Beclin1 ΔBH3 (from UniProt Q14457)	no binding	
Beclin1-flag (from UniProt Q14457 1-450)		no binding
